Measurements as given in patent publication US10442791B2, “DNA-PK inhibitors” (Vertex Pharmaceuticals Incorporated, priority 2012, dated 2019).
Some of these results come from one statement about several compounds together. At least one structure is not confirmed: it was looked up by name or label, or the drawing left a doubt.

Chains of the proteins cited; added tags and fusions are not shown.
UniProt P78527, whole entry: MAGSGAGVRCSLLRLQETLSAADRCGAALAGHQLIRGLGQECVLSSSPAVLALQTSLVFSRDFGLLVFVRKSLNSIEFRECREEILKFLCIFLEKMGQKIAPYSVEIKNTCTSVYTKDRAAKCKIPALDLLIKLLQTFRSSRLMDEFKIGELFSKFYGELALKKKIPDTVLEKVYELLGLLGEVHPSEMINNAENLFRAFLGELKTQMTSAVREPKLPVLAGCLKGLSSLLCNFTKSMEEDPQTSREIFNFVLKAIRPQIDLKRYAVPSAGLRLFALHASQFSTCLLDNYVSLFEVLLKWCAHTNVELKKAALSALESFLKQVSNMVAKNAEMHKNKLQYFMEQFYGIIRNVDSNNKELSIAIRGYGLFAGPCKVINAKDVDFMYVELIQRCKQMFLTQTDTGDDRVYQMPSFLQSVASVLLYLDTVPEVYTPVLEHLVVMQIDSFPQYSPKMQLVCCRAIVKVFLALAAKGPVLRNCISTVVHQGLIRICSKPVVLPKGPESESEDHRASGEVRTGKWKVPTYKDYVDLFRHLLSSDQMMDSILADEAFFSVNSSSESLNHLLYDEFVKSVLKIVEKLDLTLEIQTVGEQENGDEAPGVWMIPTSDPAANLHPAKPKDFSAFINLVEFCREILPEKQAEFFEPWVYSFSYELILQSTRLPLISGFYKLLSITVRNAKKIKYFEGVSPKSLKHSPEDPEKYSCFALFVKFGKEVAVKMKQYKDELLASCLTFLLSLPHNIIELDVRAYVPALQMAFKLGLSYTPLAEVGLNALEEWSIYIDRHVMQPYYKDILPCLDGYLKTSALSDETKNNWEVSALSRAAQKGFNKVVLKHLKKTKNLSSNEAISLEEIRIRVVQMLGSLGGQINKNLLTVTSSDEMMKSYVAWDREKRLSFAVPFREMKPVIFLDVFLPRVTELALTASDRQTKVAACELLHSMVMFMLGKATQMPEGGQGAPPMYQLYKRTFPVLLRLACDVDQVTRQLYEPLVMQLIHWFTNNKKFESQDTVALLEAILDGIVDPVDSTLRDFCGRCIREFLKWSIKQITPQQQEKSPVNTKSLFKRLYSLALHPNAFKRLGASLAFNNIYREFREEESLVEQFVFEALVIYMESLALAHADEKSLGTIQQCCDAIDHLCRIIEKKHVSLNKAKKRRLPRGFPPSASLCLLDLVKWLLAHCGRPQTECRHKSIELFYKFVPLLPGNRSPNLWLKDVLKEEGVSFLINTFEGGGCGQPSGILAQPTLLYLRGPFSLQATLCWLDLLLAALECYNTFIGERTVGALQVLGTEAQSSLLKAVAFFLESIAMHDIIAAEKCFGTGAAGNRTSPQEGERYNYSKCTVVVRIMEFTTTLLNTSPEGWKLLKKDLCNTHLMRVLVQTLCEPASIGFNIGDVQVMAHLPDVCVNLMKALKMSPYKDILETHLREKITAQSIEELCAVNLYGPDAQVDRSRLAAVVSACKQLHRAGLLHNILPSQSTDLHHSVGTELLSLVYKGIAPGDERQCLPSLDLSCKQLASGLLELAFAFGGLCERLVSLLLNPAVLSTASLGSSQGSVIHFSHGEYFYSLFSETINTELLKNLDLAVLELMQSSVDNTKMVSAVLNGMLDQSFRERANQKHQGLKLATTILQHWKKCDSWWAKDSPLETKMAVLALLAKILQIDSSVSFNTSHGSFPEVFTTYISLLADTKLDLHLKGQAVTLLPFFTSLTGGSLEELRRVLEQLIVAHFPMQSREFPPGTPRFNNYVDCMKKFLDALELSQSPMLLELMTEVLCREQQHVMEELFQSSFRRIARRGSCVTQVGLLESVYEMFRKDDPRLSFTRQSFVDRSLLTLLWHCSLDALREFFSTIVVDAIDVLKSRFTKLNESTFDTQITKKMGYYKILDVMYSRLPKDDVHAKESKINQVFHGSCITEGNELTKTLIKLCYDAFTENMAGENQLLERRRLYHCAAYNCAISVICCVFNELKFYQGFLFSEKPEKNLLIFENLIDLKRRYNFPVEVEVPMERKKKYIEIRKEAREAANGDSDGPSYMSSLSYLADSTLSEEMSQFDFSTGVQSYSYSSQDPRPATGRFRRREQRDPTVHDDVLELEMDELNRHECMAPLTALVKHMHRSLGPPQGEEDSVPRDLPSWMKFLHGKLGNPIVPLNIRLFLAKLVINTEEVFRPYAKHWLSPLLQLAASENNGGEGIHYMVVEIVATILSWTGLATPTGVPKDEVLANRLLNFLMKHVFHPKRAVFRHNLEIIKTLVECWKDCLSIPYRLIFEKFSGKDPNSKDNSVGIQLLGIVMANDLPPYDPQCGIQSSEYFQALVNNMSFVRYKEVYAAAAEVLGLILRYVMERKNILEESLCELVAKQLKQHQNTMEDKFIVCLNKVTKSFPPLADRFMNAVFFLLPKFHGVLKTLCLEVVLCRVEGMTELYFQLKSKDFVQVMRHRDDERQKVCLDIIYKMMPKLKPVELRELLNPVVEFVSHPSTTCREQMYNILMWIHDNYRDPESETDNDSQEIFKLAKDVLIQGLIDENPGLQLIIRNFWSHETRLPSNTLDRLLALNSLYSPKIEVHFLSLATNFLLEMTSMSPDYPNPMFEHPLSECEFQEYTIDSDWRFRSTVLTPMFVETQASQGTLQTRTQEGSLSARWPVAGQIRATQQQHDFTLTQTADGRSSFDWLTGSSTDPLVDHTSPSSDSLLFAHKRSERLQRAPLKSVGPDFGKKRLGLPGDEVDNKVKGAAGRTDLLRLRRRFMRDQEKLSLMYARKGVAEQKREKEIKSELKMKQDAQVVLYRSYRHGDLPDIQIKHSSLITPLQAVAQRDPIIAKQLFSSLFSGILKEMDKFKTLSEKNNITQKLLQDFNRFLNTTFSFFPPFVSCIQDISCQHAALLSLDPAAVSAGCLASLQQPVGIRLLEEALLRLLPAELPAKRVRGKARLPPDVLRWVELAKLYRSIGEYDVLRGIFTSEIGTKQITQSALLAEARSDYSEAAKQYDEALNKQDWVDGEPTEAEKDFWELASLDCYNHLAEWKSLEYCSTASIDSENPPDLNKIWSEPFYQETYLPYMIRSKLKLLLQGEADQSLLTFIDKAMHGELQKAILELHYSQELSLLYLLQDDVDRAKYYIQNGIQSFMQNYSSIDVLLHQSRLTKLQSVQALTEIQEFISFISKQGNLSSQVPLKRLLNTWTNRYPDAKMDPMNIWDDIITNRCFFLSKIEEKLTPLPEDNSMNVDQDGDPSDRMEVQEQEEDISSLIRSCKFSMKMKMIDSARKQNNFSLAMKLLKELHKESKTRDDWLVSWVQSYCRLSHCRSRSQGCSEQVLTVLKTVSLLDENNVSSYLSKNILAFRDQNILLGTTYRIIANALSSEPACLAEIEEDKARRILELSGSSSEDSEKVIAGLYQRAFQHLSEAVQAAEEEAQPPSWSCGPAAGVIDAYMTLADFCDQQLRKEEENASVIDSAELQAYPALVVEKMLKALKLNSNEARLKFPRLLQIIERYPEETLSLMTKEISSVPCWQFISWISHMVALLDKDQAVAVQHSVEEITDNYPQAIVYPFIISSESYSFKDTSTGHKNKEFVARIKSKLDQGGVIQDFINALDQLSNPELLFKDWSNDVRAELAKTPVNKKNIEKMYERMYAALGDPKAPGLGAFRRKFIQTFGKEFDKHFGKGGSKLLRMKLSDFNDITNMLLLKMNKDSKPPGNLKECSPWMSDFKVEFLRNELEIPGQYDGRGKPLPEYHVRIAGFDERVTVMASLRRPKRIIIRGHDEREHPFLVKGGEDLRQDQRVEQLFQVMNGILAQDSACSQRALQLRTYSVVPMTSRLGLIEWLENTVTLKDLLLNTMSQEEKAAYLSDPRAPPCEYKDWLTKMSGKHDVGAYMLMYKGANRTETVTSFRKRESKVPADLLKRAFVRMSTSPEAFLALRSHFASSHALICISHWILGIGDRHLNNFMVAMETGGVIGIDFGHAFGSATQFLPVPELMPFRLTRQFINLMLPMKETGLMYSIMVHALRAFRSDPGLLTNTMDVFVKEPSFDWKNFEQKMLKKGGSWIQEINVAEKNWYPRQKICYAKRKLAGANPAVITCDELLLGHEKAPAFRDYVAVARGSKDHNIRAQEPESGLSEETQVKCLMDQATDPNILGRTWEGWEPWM

biological target: DNA-PK (Homo sapiens, UniProt P78527); experiment: DNA-PK inhibition assay (radiometric 33P-ATP kinase assay); assay type: biochemical; conditions: 100 μM ATP; competitive tight-binding fit

Row | Compound | Ki [nM]
1 | Cc1ccc(-c2cc(NC[C@@H](C)c3cccc4c3ncc3[nH]n(C)c(=O)c34)ncn2)cn1 [Compound 994] | ≤ 300
2 | CNC(=O)c1ccnc2c([C@H](C)CNc3cc(-c4cnc(C(F)(F)F)nc4)ncn3)ccc(F)c12 [Compound 653] | ≤ 300
3 | CNC(=O)c1ccnc2c([C@H](C)CNc3cc(-c4ccc(N(C)C5CCN(CC(F)(F)F)CC5)nc4)ncn3)cccc12 [Compound 1042] | ≤ 300
4 | CNC(=O)c1ccnc2c([C@H](C)CNc3cc(-c4ccc(CC5CCN(CC(F)(F)F)CC5)nc4)ncn3)cccc12 [Compound 1023] | ≤ 300
5 | [2H]c1nc(C)nc(O)c1-c1cc(NC[C@@H](C)c2cccc3c(C(=O)NC)ccnc23)ncn1 [Compound 1041] | ≤ 300
6 | CNC(=O)c1ccnc2c([C@H](C)CNc3cc(-c4cnc(OC(C)(C)C)nc4)ncn3)ccc(F)c12 [Compound 998] | ≤ 300
7 | CNC(=O)c1ccnc2c([C@H](C)CNc3cc(-c4cnc(NC5CC5)nc4)ncn3)ccc(F)c12 [Compound 1028] | ≤ 300
8 | CCOc1ncc(-c2cc(NC[C@@H](C)c3cccc4c(C(=O)NC)c(F)cnc34)ncn2)cn1 [Compound 1030] | ≤ 300
9 | CNC(=O)c1ccnc2c([C@H](C)CNc3cc(-c4ccc(C5(O)COC5)nc4)ncn3)cccc12 [Compound 1067] | ≤ 300
10 | Cc1cc([C@H](C)CNc2cc(-c3cnc(C)nc3)ncn2)c2c(n1)CCO2 [Compound 507] | ≤ 300
11 | COc1ccccc1[C@H](C)CNc1cc(-c2ccc(Nc3nn[nH]n3)nc2)ncn1 [Compound 203] | ≤ 300
12 | CNC(=O)c1ccc([C@H](C)CNc2cc(-c3cnc(C)nc3)ncn2)c(OC)c1 [Compound 308] | ≤ 300
13 | CNC(=O)c1ccnc2c([C@H](C)CNc3cc(-c4ccc(N(C)CCOCC5CC5)nc4)ncn3)cccc12 [Compound 714] | ≤ 300
14 | CNC(=O)c1ccc(C(C)CNc2cc(-c3cnc4c(cnn4C4CCN(C)CC4)c3)ncn2)c(OC)c1 (stereo not shown) [Compound 155] | ≤ 300
15 | CNC(=O)c1ccnc2c([C@H](C)CNc3cc(-c4cnc(NCCNC(C)=O)nc4)ncn3)ccc(F)c12 [Compound 1053] | ≤ 300
16 | CNC(=O)c1ccc([C@H](C)CNc2cc(-c3cnc4c(cnn4CC(C)(C)O)c3)ncn2)c(OC)c1 [Compound 285] | ≤ 300
17 | CNC(=O)c1ccnc2c([C@H](C)CNc3cc(-c4ccc(N5CCN(C)CC5)nc4)ncn3)cccc12 [Compound 616] | ≤ 300

Row | Compound | Ki [nM]
18 | CNC(=O)c1ccnc2c([C@H](C)CNc3cc(-c4cncc(CO)c4)ncn3)cccc12 [Compound 956] | ≤ 300
19 | CNC(=O)c1ccnc2c([C@H](C)CNc3cc(-c4cnc5c(cnn5CCO)c4)ncn3)cccc12 [Compound 580] | ≤ 300
20 | CNC(=O)c1ccnc2c([C@H](C)CNc3cc(-c4ccc(C(C)C)nc4)ncn3)ccc(F)c12 [Compound 853] | ≤ 300
21 | Cc1ccc(-c2cc(NCC(C)c3ccccc3OC3CCC3)ncn2)cn1 (stereo not shown) [Compound 240] | ≤ 300
22 | CNc1ncc(-c2cc(NC[C@@H](C)c3cccc4c(=O)[nH]cnc34)ncn2)cn1 [Compound 600] | ≤ 300
23 | CNC(=O)c1ccnc2c([C@H](C)CNc3cc(-c4cnc(N5CCOCC5)nc4)ncn3)cccc12 [Compound 650] | ≤ 300
24 | COc1cscc1C(C)CNc1cc(-c2ccc(C)nc2)ncn1 (stereo not shown) [Compound 144] | ≤ 300
25 | COc1cc(C(O)C(F)(F)F)ccc1C(C)CNc1cc(-c2ccc(C)nc2)ncn1 (stereo not shown) [Compound 525] | ≤ 300
26 | CNC(=O)c1ccnc2c([C@H](C)CNc3cc(-c4cnc(CO)c(OC)c4)ncn3)ccc(F)c12 [Compound 916] | ≤ 300
27 | CC(CNc1cc(-c2cnc3[nH]ncc3c2)ncn1)c1ccccc1OC1COC1 (stereo not shown) [Compound 214] | ≤ 300
28 | CNC(=O)c1ccc(C(C)CNc2cc(-c3cnc4c(cnn4CCOC)c3)ncn2)c(OC)c1 (stereo not shown) [Compound 154] | ≤ 300
29 | CNC(=O)c1c(F)cnc2c([C@H](C)CNc3cc(-c4cnnc(C)c4)ncn3)cccc12 [Compound 968] | ≤ 300
30 | CNC(=O)c1ccc(C(C)CNc2cc(-c3cnc4c(cnn4C4CN(C(C)=O)C4)c3)ncn2)c(OC)c1 (stereo not shown) [Compound 248] | ≤ 300
31 | CNC(=O)c1ccnc2c([C@H](C)CNc3cc(-c4cnc(N5CCOCC5)c(C)c4)ncn3)cccc12 [Compound 880] | ≤ 300
32 | CNC(=O)c1c(F)cnc2c([C@H](C)CNc3cc(-c4ccc(C(O)C(C)C)nc4)ncn3)cccc12 (stereo partly shown) [Compound 927] | ≤ 300
33 | CNC(=O)c1c(F)cnc2c([C@H](C)CNc3cc(-c4ccc(N(C)C5CCN(C)CC5)nc4)ncn3)cccc12 [Compound 1087] | ≤ 300
34 | [2H]C([2H])([2H])C([2H])([2H])c1ncc(-c2cc(NC[C@@H](C)c3cccc4c(C(=O)NC)c(F)cnc34)ncn2)cn1 [Compound 1004] | ≤ 300

The next lines start with the values.

Row | Ki [nM] | Compound
35 | ≤ 300 | CC(CNc1cc(-c2ccc(N3CCN(C)CC3)nc2)ncn1)c1ccccc1OC(F)F (stereo not shown) [Compound 63]
36 | ≤ 300 | Cc1ccc(-c2cc(NCC(C)c3cncnc3OC3CCC3)ncn2)cn1 (stereo not shown) [Compound 299]
37 | ≤ 300 | CNC(=O)c1ccc([C@H](C)CNc2cc(-c3ccc4c(c3)CCN4C)ncn2)c(OC)c1 [Compound 342]
38 | ≤ 300 | CNC(=O)c1ccnc2c([C@H](C)CNc3cc(-c4ccc(NCCc5ccc(C)o5)nc4)ncn3)cccc12 [Compound 738]
39 | ≤ 300 | Fc1ccc(-c2cc(NCCc3ccccc3OC3CC3)ncn2)cn1 [Compound 111]
40 | ≤ 300 | CNc1ncc(-c2cc(NC[C@@H](C)c3cc(C)nc4c3OCC4)ncn2)cn1 [Compound 574]
41 | ≤ 300 | CNC(=O)c1ccnc2c([C@H](C)CNc3cc(-c4ccc(C5(O)COC5)cc4)ncn3)cccc12 [Compound 809]
42 | ≤ 300 | C[C@H](CNc1cc(-c2cnc3c(ccn3C3COC3)c2)ncn1)c1ccnc2c1OCCO2 [Compound 536]
43 | ≤ 300 | CNC(=O)c1ccnc2c([C@H](C)CNc3cc(-c4ccc(NCC(F)F)nc4)ncn3)cccc12 [Compound 975]
44 | ≤ 300 | CNC(=O)c1ccnc2c([C@H](C)CNc3cc(-c4ccc(NCc5nc6ccccc6[nH]5)nc4)ncn3)cccc12 [Compound 710]
45 | ≤ 300 | CNC(=O)c1ccnc2c([C@H](C)CNc3cc(-c4ccc(C(=O)OC)s4)ncn3)cccc12 [Compound 774]
46 | ≤ 300 | CNC(=O)c1ccnc2c([C@H](C)CNc3cc(-c4ccc(N5CCOC(C)(C)C5)nc4)ncn3)cccc12 [Compound 733]
47 | ≤ 300 | Cc1ccc(-c2cc(NCC(C)c3ccccc3OCC3COC(C)(C)O3)ncn2)cn1 (stereo not shown) [Compound 196]
48 | ≤ 300 | CNC(=O)c1ccc(C(C)CNc2cc(-c3ccc4ncccc4c3)ncn2)c(OC)c1 (stereo not shown) [Compound 256]
49 | ≤ 300 | CNC(=O)c1ccc([C@H](C)CNc2cc(-c3cnc(C)nc3)ncn2)c2ncccc12 [Compound 511]
50 | ≤ 300 | COc1cc([C@H](N)C(F)(F)F)ccc1C(C)CNc1cc(-c2ccc(C)nc2)ncn1 (stereo partly shown) [Compound 565]
51 | ≤ 300 | C[C@H](CNc1cc(-c2cc(F)c3ncccc3c2)ncn1)c1ccnc2c1OCC2 [Compound 597]
52 | ≤ 300 | CNC(=O)c1ccnc2c([C@H](C)CNc3cc(-c4cnc(C5CC5)nc4)ncn3)cccc12 [Compound 790]
53 | ≤ 300 | CNC(=O)c1c(OC)cnc2c([C@H](C)CNc3cc(-c4ccc(C)nc4)ncn3)cccc12 [Compound 762]
54 | ≤ 300 | CNC(=O)c1ccnc2c([C@H](C)CNc3cc(-c4ccc(O)cc4)ncn3)cccc12 [Compound 685]

Row | Ki [nM] | Compound
55 | ≤ 300 | Cc1ncc(-c2cc(NC[C@@H](C)c3cccc4nccnc34)ncn2)cn1 [Compound 662]
56 | ≤ 300 | Cc1cc(-c2cc(NC[C@@H](C)c3ccnc4c3OCCO4)ncn2)cnc1F [Compound 534]
57 | ≤ 300 | Cc1ccc(-c2cc(NCC(C)c3cccc4c(C#N)ccnc34)ncn2)cn1 (stereo not shown) [Compound 489]
58 | ≤ 300 | Cc1ccc(-c2cc(NC[C@@H](C)c3cccc4c(C(=O)NCC(F)F)ccnc34)ncn2)cn1 [Compound 569]
59 | ≤ 300 | CCCNC(=O)c1ccc(C(C)CNc2cc(-c3ccc(C)nc3)ncn2)c(OC)c1 (stereo not shown) [Compound 161]
60 | ≤ 300 | COc1nc(C)ccc1C(C)CNc1cc(-c2ccc(C)nc2)ncn1 (stereo not shown) [Compound 473]
61 | ≤ 300 | CNC(=O)c1ccnc2c([C@H](C)CNc3cc(-c4cc(F)c(F)c(F)c4)ncn3)cccc12 [Compound 873]
62 | ≤ 300 | CC(CNc1cc(-c2ccc(C(=O)O)cc2)ncn1)c1cccc2cccnc12 (stereo not shown) [Compound 280]
63 | ≤ 300 | CC(=O)N1CCOc2c([C@H](C)CNc3cc(-c4cnc(C)nc4)ncn3)cccc21 [Compound 627]
64 | ≤ 300 | COCCn1ncc2cc(-c3cc(NC[C@@H](C)c4ccccc4OC)ncn3)cnc21 [Compound 139]
65 | ≤ 300 | CNC(=O)c1ccnc2c([C@H](C)CNc3cc(-c4ccc(C)nc4)ncn3)cc(F)cc12 [Compound 562]
66 | ≤ 300 | COc1ccccc1CCNc1cc(-c2cnc3c(ccn3C(C)C)c2)ncn1 [Compound 37]
67 | ≤ 300 | CNCCCNc1ccc(-c2cc(NC[C@@H](C)c3ccc(C(=O)NC)cc3OC)ncn2)cn1 [Compound 356]
68 | ≤ 300 | COc1ccccc1CCNc1cc(-c2ccc(N3CCCC3)nc2)ncn1 [Compound 46]
69 | ≤ 300 | COc1ccc(SC)cc1C(C)CNc1cc(-c2ccc(C)nc2)ncn1 (stereo not shown) [Compound 64]
70 | ≤ 300 | COc1ccccc1[C@H](C)CNc1cc(-c2ccc(NC3CCN(C)CC3)nc2)ncn1 [Compound 254]
71 | ≤ 300 | Cc1ccc(-c2cc(NCC(C)c3cncc4cccnc34)ncn2)cn1 (stereo not shown) [Compound 414]
72 | ≤ 300 | CNc1ncc(-c2cc(NC[C@@H](C)c3ccccc3OC)ncn2)cn1 [Compound 137]
73 | < 30 | CNC(=O)c1ccnc2c([C@H](C)CNc3cc(-c4cnc(C)nc4)c(C#N)cn3)cccc12 [Compound 1091]

same assay, conditions: 100 μM ATP; competitive tight-binding fit; listed as compound 392

Row | Compound | Ki [nM]
74 | CNC(=O)c1ccc([C@H](C)CNc2cc(-c3ccc(NC4CCOC4)nc3)ncn2)c(OC)c1 (single isomer, unassigned) [Compound 392] | ≤ 300

same assay, conditions: 100 μM ATP; competitive tight-binding fit; listed as compound 639

Row | Compound | Ki [nM]
75 | CNC(=O)c1ccnc2c([C@H](C)CNc3cc(-c4ccc(C)nc4)ncn3)cc(F)c(F)c12 [Compound 639] | ≤ 300

same assay, conditions: 100 μM ATP; competitive tight-binding fit; listed as compound 798

Row | Compound | Ki [nM]
76 | CNC(=O)c1ccnc2c([C@H](C)CNc3cc(-c4cnn(C)c4)ncn3)cccc12 [Compound 798] | ≤ 300
